Measurements as given in US20250206834A1.
These are yes or no findings as the source states them, for the method shown. Binding can be weak; no strength is given.

Target: cynomolgus 4-1BB (cynomolgus)
Test: flow cytometry, CHO-K1 cells overexpressing cynomolgus 4-1BB

Binder | binding
VV02-1LP-263 huNb_1_2 (Fc fusion, not shown: a dimerising Fc or GST) VHH: EVQLLESGGGLVQPGGSLRLSCAASGFTFSSSAMSWARQAPGKGLEWVSGIYSGGSTYYTESVKDRFTISRDNSKNTVYLQMNSLKPEDTAVYYCATWGTLRFGVWAEYDHWGQGTLVTVSS | binds
VV02-1LP-263 huNb_2_2 (Fc fusion, not shown: a dimerising Fc or GST; small tags and cut ends) VHH: EVQLVESGGGLVQPGGSLRLSCAASGFTFSSSAMSWARQAPGKGLEWVSGIYSGGSTYYTESVKDRFTISRDNAKNTLYLQMNSLRPEDTAVYYCATWGTLRFGVWAEYDHWGQGTLVTVSS | binds
VV02-1LP-263 huNb_2_3 (Fc fusion, not shown: a dimerising Fc or GST; small tags and cut ends) VHH: EVQLVESGGGLVQPGGSLRLSCAASGFTFSSSAMSWARQAPGKGFEWVSGIYSGGSTYYTESVKDRFTISRDNAKNTVYLQMNSLKPEDTAVYYCATWGTLRFGVWAEYDHWGQGTLVTVSS | binds
VV02-1LP-263 huNb_1_3 (Fc fusion, not shown: a dimerising Fc or GST; small tags and cut ends) VHH: EVQLLESGGGLVQPGGSLRLSCAASGFTFSSSAMSWARQTPGKGFEWVSGIYSGGSTYYTESVKDRFTISRDNSKNTVYLQMNSLKPEDTAVYYCATWGTLRFGVWAEYDHWGQGTQVTVSS | binds

Next, values leading:

binding | Binder
binds | VV02-1LP-263 huNb_3_3 (Fc fusion, not shown: a dimerising Fc or GST; small tags and cut ends) VHH: QVQLVESGGGLVQPGGSLRLSCAASGFTFSSSAMSWARQAPGKGFEWVSGIYSGGSTYYTESVKDRFTISRDNAKNSVYLQMNSLKPEDTAVYYCATWGTLRFGVWAEYDHWGQGTQVTVSS
binds | VV02-1LP-263 huNb_3_2 (Fc fusion, not shown: a dimerising Fc or GST; small tags and cut ends) VHH: QVQLVESGGGLVKPGGSLRLSCAASGFTFSSSAMSWARQAPGKGFEWVSGIYSGGSTYYTESVKDRFTISRDNAKNSLYLQMNSLRPEDTAVYYCATWGTLRFGVWAEYDHWGQGTQVTVSS
